Measurements as given in PubChem BioAssay AID590 (National Center for Advancing Translational Sciences (NCATS), 2007).
Out of some 59,000 compounds screened, about 6,500 (11%) were called active. Inconclusive results, whose numbers are uncertain, are shown with a selection of clear calls. Rule as the data show it: active = max dye-equivalent concentration above about 10 nM; inconclusive = mostly about 1.1 nM to 9.6 nM; inactive = weaker than that. A structure can be active in one record and inactive in another.

assay: qHTS Assay for Spectroscopic Profiling in A350 Spectral Region; conditions: Compound autofluorescence, 340/450 nm, Alexa 350 dye-equivalents; stronger effect = higher value

| Structure (SMILES) | max dye-equivalent concentration |
| --- | --- |
| O=C(NCCCN1CCN(c2ccccc2)CC1)Nc1ccccc1C(F)(F)F | inactive |
| CC(O)Cn1ccccc1=N (stereo not given) | inconclusive: 2.3 nM |
| CCn1c(-c2ccsc2)nc2c1c(=O)[nH]c(=O)n2Cc1ccccc1 | inconclusive: 1.1 nM |
| COc1ccc(NC2c3ncccc3C(=O)N2Cc2ccccc2)c(OC)c1 (stereo not given) | inconclusive: 1.6 nM |
| COc1ccc(-c2nc3cnc(N4CCN(C)CC4)nc3n(C3CC3)c2=O)cc1 | inactive |
| CC(=O)NC12CC3CC(C1)CC(C(=O)OCC(=O)Nc1ncc(Cl)c(C)c1Cl)(C3)C2 | inconclusive: 1.4 nM |
| C=CCn1c(COc2cccc3cccnc23)nnc1SCC(=O)O | inactive |
| O=C(CN1CCN(c2ccc(F)cc2)CC1)Nc1cccc(C(F)(F)F)c1 | inactive |
| Cc1cc2c(c(N3CCOCC3)n1)C(=O)OC2 | active: 17 nM |
| C=CCOC(=O)C(C#N)c1nc2ccccc2nc1N1CCCC1 (stereo not given) | active: 41 nM |
| O=C1C=C(NCc2ccco2)CCC1 | inconclusive: 6.4 nM |
| CCN1CCc2nc(NC(=O)Cc3ccc4c(c3)OCCO4)sc2C1 | inconclusive: 1.6 nM |
| N[C@H](CC(=O)O)C(=O)O | active: 40 nM |
| FC(F)C(F)(F)C1=CC(c2cccs2)=NCCN1 | inconclusive: 4.9 nM |
| Cc1c(C(=O)N2CCCC2)sc(NC(=O)c2cccs2)c1C#N | inconclusive: 2.7 nM |
| O=C(NC1CC2CCC1C2)C1COc2ccccc2O1 (stereo not given) | inactive |
| CCN(CC)C(=O)C1CCC(C)(C(=O)O)C1(C)C (stereo not given) | inactive |
| O=C(Cc1cn2ccsc2n1)Nc1nc2c(s1)CCCC2 | inconclusive: 1.5 nM |
| CCOc1ccc(-c2noc(COC)n2)cc1OC | inconclusive: 2.2 nM |
| CCOC(=O)n1c(SCC(=O)N(CC)CC)nc2ccccc21 | inconclusive: 2.4 nM |

| Structure (SMILES) | max dye-equivalent concentration |
| --- | --- |
| COC(=O)c1ccc(OC)c(CSc2nnc(COc3ccc(OC)cc3)o2)c1 | inconclusive: 4.1 nM |
| COc1ccc2cc(C(=O)N3CCCCCC3)sc(=O)c2c1OC | inconclusive: 3.8 nM |
| COc1ccc(C(=O)N2CCC3(CCN(C(=O)Nc4cccc(C#N)c4)CC3)CC2)cc1 | inactive |
| CCOC(=O)N1CCN(Cc2cc(=O)oc3cc4c(cc23)CCC4)CC1 | inconclusive: 2.6 nM |
| COCCn1c(=O)c(-c2cc(F)cc(F)c2)nc2cnc(OCc3ccccc3)nc21 | inconclusive: 4 nM |
| COC(=O)c1ccc(Cl)c(NS(=O)(=O)c2ccc3c(c2)OCCO3)c1 | inconclusive: 6.3 nM |
| CCC1(NC(C)=O)CC2CC1CC2NC(C)=O (stereo not given) | inconclusive: 1.9 nM |
| CCOc1ccc2nc(NCCNC(=O)C(C)C)c(C)cc2c1 | active: 350 nM |
| C=CCN(C(=O)CNC(=O)c1ccco1)C(C(=O)NC1CCCCC1)c1ccccc1 (stereo not given) | inconclusive: 1.2 nM |
| CN(C)c1ncnc2ccc(-c3ccoc3)cc12 | inactive |
| C[C@]12CCC(=O)C=C1CC[C@@H]1[C@@H]2C(=O)C[C@@]2(C)[C@H]1CC[C@]2(O)C(=O)CO | inconclusive: 3.5 nM |
| O=C(Cn1cnc2ccccc2c1=O)NCC(=O)N1CCN(c2ccccn2)CC1 | inconclusive: 6.1 nM |
| CC(C)n1cc(/C=C(\C#N)S(=O)(=O)c2ccccc2)c2ccccc21 | inconclusive: 7 nM |
| C=CCOC(=O)C(C#N)c1nc2ccccc2nc1N1CCN(c2ccccc2OCC)CC1 (stereo not given) | inactive |
| COc1ccc(-c2noc(CCN3C(=O)c4ccccc4C3=O)n2)cc1OC | inconclusive: 4.6 nM |
| Cc1occc1-c1nnc(SCC(=O)NCc2cccs2)n1-c1ccc(F)cc1 | inconclusive: 1.1 nM |
| C=CCn1cnc2c(c1=O)c1nc3ccccc3nc1n2/N=C/c1cccc(OC)c1 | active: 15 nM |
| CCOc1ccc(OCC)c(NC(=O)C2CCN(c3ncccn3)CC2)c1 | inactive |
| CN(C)C(=O)N1CCC(C(=O)NCc2ccc(F)cc2Cl)CC1 | inactive |
| O=C(CCC(=O)NC1CC1)Nc1nnc(C2CCCCC2)s1 | inactive |

| Structure (SMILES) | max dye-equivalent concentration |
| --- | --- |
| Cc1ccc(CC2(O)CC(C)N(C)CC2C)c(C)c1 (stereo not given) | inactive |
| O=[n+]1c2c(n([O-])c3c1CCC3)CCCC2 | inactive |
| COc1ccccc1-c1nnc2sc(COc3ccc(Cl)cc3Cl)nn12 | inconclusive: 1.5 nM |
| O=C(Nc1ccc2c(c1)OCO2)c1cccc2c1C(=O)N(C1CCCCC1)C2 | active: 20 nM |
| CCOc1ncccc1C(=O)OCC(=O)Nc1ncc(C(F)(F)F)cc1Cl | inconclusive: 1.8 nM |
| Cc1cc(NC(=O)CSc2ccc3nnc(-c4cccc(F)c4)n3n2)no1 | inconclusive: 5 nM |
| CCn1c(=O)c(C(=O)CN2CCOCC2)c(N)n(Cc2ccccc2)c1=O | active: 18 nM |
| CS(=O)(=O)N1CCC(C(=O)NCCN2CCN(Cc3ccccc3)CC2)CC1 | inconclusive: 2.3 nM |
| O=c1c(-c2cc(F)cc(F)c2)nc2cnc(N3CCNCC3)nc2n1C1CC1 | active: 260 nM |
| N#Cc1nc(-c2ccc(F)cc2)oc1N1CCCC1 | active: 57 nM |
| CCOC(=O)Nc1c(C(=O)OC)[nH]c2cccc(OC)c12 | inconclusive: 3.6 nM |
| CCC(NS(=O)(=O)c1ccc(C)cc1)C(=O)N1CCC2(O)CCCCC2C1 (stereo not given) | inconclusive: 2.5 nM |
| COCCn1c(=O)cnc2cnc(N3CCOCC3)nc21 | inconclusive: 2.1 nM |
| COc1cc2nc(N3CCN(C(=O)OCc4ccccc4)[C@H](C(=O)NC(C)(C)C)C3)nc(N)c2cc1OC | active: 270 nM |
| CSc1nc(C2CC2)cc(-c2cccs2)c1C#N | inconclusive: 4.9 nM |
| Cc1ccc2oc(-c3cccc(NC(=O)C4CCCO4)c3)nc2c1 (stereo not given) | inactive |
| Cc1nc2cnc(N3CCN(C)CC3)nc2n(-c2ccccc2)c1=O | active: 75 nM |
| O=c1[nH]nc(Sc2ncnc3sccc23)n1CCc1ccccc1 | inactive |
| CCc1ccc(OCC(=O)N(C)C)c(Br)c1 | inactive |
| CNc1nc(OC)nc(N2CCOCC2)n1 | active: 27 nM |

Among those listed so far, these have a COOH group:

| Structure (SMILES) | max dye-equivalent concentration |
| --- | --- |
| C=CCn1c(COc2cccc3cccnc23)nnc1SCC(=O)O | inactive |
| N[C@H](CC(=O)O)C(=O)O | active: 40 nM |
| CCN(CC)C(=O)C1CCC(C)(C(=O)O)C1(C)C (stereo not given) | inactive |
